Further values from the same series stand in other lists. Where a SMILES comes first, the peptide text is derived from it. Bridges are numbered along the chain shown (N, C = ends). [ ]: non-standard residue; d: D form. The star is where a group is joined. Heptanoyl(5-Me) = CCC(C)CCCC(=O)*; Dab = NCC[C@H](N)C(=O)O
Tests used:
Details in all cases: growth mode: biofilm, 24 h; exposure time: 24 h
[1] = compound: T1, NC[C@H]1O[C@H](O[C@H]2[C@H](O)[C@@H](O[C@H]3O[C@H](CO)[C@@H](O)[C@H](N)[C@H]3O)[C@H](N)C[C@@H]2N)[C@H](N)C[C@@H]1O [tobramycin]; test: minimum concentration eradicating biofilm below detection limit (MCK-E); higher = more biofilm tolerance
Description: (§1)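 Clinical P. aeruginosa isolates were grown as static biofilms for 24 h at 37 °C in LB in half-area 96-well plates, then exposed for 24 h to tobramycin at 1, 4, 16, 64, 256 or […]. Surviving CFU were counted by spotting serial dilutions. MCK is the lowest tested concentration giving the stated log reduction in CFU versus an untreated control; '>1024' means the reduction was not reached at the top dose, and 1 is the lowest dose tested (≤1).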

[2] = compound: T1, tobramycin; test: minimum concentration of killing, 2-log CFU reduction of biofilm (MCK99); higher = more biofilm tolerance
Description: as §1

[3] = compound: T1, tobramycin; test: minimum concentration of killing, 4-log CFU reduction of biofilm (MCK99.99); higher = more biofilm tolerance
Description: as §1

[4] = compound: T2, CCC(C)CCCC(=O)N[C@@H](CCN)C(=O)N[C@H](C(=O)N[C@@H](CCN)C(=O)N[C@H]1CCNC(=O)[C@H]([C@@H](C)O)NC(=O)[C@H](CCN)NC(=O)[C@H](CCN)NC(=O)[C@H](CC(C)C)NC(=O)[C@@H](CC(C)C)NC(=O)[C@H](CCN)NC1=O)[C@@H](C)O [colistin]; test: minimum concentration of killing, 2-log CFU reduction of biofilm (MCK99); higher = more biofilm tolerance
Description: as §1, with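 “colistin” for “tobramycin”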

[5] = compound: T2, colistin; test: minimum concentration of killing, 1-log CFU reduction of biofilm (MCK90); higher = more biofilm tolerance
Description: as §1, with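 “colistin” for “tobramycin”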

[6] = compound: T1, tobramycin; test: as above
Description: as §1

[7] = compound: T2, colistin; test: minimum concentration eradicating biofilm below detection limit (MCK-E); higher = more biofilm tolerance
Description: as §1, with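 “colistin” for “tobramycin”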

[8] = compound: T2, colistin; test: minimum concentration of killing, 4-log CFU reduction of biofilm (MCK99.99); higher = more biofilm tolerance
Description: as §1, with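 “colistin” for “tobramycin”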

Pseudomonas aeruginosa clinical isolate MHH17501
minimum concentration eradicating biofilm below detection limit [1]: 1020 µg/mL
minimum concentration of killing [2]: 64 µg/mL
minimum concentration of killing [3]: 256 µg/mL
minimum concentration of killing [4]: 256 µg/mL
minimum concentration of killing [5]: 256 µg/mL
minimum concentration of killing [6]: 64 µg/mL
minimum concentration eradicating biofilm below detection limit [7]: 256 µg/mL
minimum concentration of killing [8]: 256 µg/mL

Pseudomonas aeruginosa clinical isolate MHH17546
minimum concentration eradicating biofilm below detection limit [1]: > 1020 µg/mL
minimum concentration of killing [2]: 64 µg/mL
minimum concentration of killing [3]: 1020 µg/mL
minimum concentration of killing [4]: 64 µg/mL
minimum concentration of killing [5]: 16 µg/mL
minimum concentration of killing [6]: ≤ 1 µg/mL
minimum concentration eradicating biofilm below detection limit [7]: 64 µg/mL
minimum concentration of killing [8]: 64 µg/mL

Pseudomonas aeruginosa clinical isolate MHH17704
minimum concentration eradicating biofilm below detection limit [1]: 64 µg/mL
minimum concentration of killing [2]: 16 µg/mL
minimum concentration of killing [3]: 64 µg/mL
minimum concentration of killing [4]: 256 µg/mL
minimum concentration of killing [5]: 256 µg/mL
minimum concentration of killing [6]: 4 µg/mL
minimum concentration eradicating biofilm below detection limit [7]: 256 µg/mL
minimum concentration of killing [8]: 256 µg/mL

Pseudomonas aeruginosa clinical isolate MHH17767
minimum concentration eradicating biofilm below detection limit [1]: > 1020 µg/mL
minimum concentration of killing [2]: > 1020 µg/mL
minimum concentration of killing [3]: > 1020 µg/mL
minimum concentration of killing [4]: 256 µg/mL
minimum concentration of killing [5]: 64 µg/mL
minimum concentration of killing [6]: 256 µg/mL
minimum concentration eradicating biofilm below detection limit [7]: 256 µg/mL
minimum concentration of killing [8]: 256 µg/mL

Pseudomonas aeruginosa clinical isolate MHH17783
minimum concentration eradicating biofilm below detection limit [1]: 256 µg/mL
minimum concentration of killing [2]: 16 µg/mL
minimum concentration of killing [3]: 256 µg/mL
minimum concentration of killing [4]: 64 µg/mL
minimum concentration of killing [5]: 64 µg/mL
minimum concentration of killing [6]: 4 µg/mL
minimum concentration eradicating biofilm below detection limit [7]: 64 µg/mL
minimum concentration of killing [8]: 64 µg/mL

Pseudomonas aeruginosa clinical isolate MS1
minimum concentration eradicating biofilm below detection limit [1]: 1020 µg/mL
minimum concentration of killing [2]: 256 µg/mL
minimum concentration of killing [3]: 1020 µg/mL
minimum concentration of killing [4]: 256 µg/mL
minimum concentration of killing [5]: 256 µg/mL
minimum concentration of killing [6]: 64 µg/mL
minimum concentration eradicating biofilm below detection limit [7]: 256 µg/mL
minimum concentration of killing [8]: 256 µg/mL

Pseudomonas aeruginosa clinical isolate MS2
minimum concentration eradicating biofilm below detection limit [1]: 1020 µg/mL
minimum concentration of killing [2]: 256 µg/mL
minimum concentration of killing [3]: 1020 µg/mL
minimum concentration of killing [4]: 64 µg/mL
minimum concentration of killing [5]: 64 µg/mL
minimum concentration of killing [6]: 64 µg/mL
minimum concentration eradicating biofilm below detection limit [7]: 64 µg/mL
minimum concentration of killing [8]: 64 µg/mL

Pseudomonas aeruginosa clinical isolate MS5
minimum concentration eradicating biofilm below detection limit [1]: 1020 µg/mL
minimum concentration of killing [2]: 256 µg/mL
minimum concentration of killing [3]: 1020 µg/mL
minimum concentration of killing [4]: 256 µg/mL
minimum concentration of killing [5]: 16 µg/mL
minimum concentration of killing [6]: 256 µg/mL
minimum concentration eradicating biofilm below detection limit [7]: 256 µg/mL
minimum concentration of killing [8]: 256 µg/mL

Pseudomonas aeruginosa clinical isolate PSAE1401
minimum concentration eradicating biofilm below detection limit [1]: 256 µg/mL
minimum concentration of killing [2]: 16 µg/mL
minimum concentration of killing [3]: 256 µg/mL
minimum concentration of killing [4]: 256 µg/mL
minimum concentration of killing [5]: 256 µg/mL
minimum concentration of killing [6]: 4 µg/mL
minimum concentration eradicating biofilm below detection limit [7]: 256 µg/mL
minimum concentration of killing [8]: 256 µg/mL

Pseudomonas aeruginosa clinical isolate PSAE1438
minimum concentration eradicating biofilm below detection limit [1]: 256 µg/mL
minimum concentration of killing [2]: 16 µg/mL
minimum concentration of killing [3]: 16 µg/mL
minimum concentration of killing [4]: 256 µg/mL
minimum concentration of killing [5]: 64 µg/mL
minimum concentration of killing [6]: ≤ 1 µg/mL
minimum concentration eradicating biofilm below detection limit [7]: 256 µg/mL
minimum concentration of killing [8]: 256 µg/mL

Pseudomonas aeruginosa clinical isolate PSAE1630
minimum concentration eradicating biofilm below detection limit [1]: > 1020 µg/mL
minimum concentration of killing [2]: 1020 µg/mL
minimum concentration of killing [3]: > 1020 µg/mL
minimum concentration of killing [4]: 256 µg/mL
minimum concentration of killing [5]: 256 µg/mL
minimum concentration of killing [6]: ≤ 1 µg/mL
minimum concentration eradicating biofilm below detection limit [7]: 256 µg/mL
minimum concentration of killing [8]: 256 µg/mL

Pseudomonas aeruginosa clinical isolate PSAE1635
minimum concentration eradicating biofilm below detection limit [1]: 1020 µg/mL
minimum concentration of killing [2]: 4 µg/mL
minimum concentration of killing [3]: 64 µg/mL
minimum concentration of killing [4]: 256 µg/mL
minimum concentration of killing [5]: 256 µg/mL
minimum concentration of killing [6]: 4 µg/mL
minimum concentration eradicating biofilm below detection limit [7]: 256 µg/mL
minimum concentration of killing [8]: 256 µg/mL

Pseudomonas aeruginosa clinical isolate PSAE1641
minimum concentration eradicating biofilm below detection limit [1]: 256 µg/mL
minimum concentration of killing [2]: ≤ 1 µg/mL
minimum concentration of killing [3]: 4 µg/mL
minimum concentration of killing [4]: 256 µg/mL
minimum concentration of killing [5]: 256 µg/mL
minimum concentration of killing [6]: ≤ 1 µg/mL
minimum concentration eradicating biofilm below detection limit [7]: 256 µg/mL
minimum concentration of killing [8]: 256 µg/mL

Pseudomonas aeruginosa clinical isolate PSAE1642
minimum concentration eradicating biofilm below detection limit [1]: 256 µg/mL
minimum concentration of killing [2]: 16 µg/mL
minimum concentration of killing [3]: 64 µg/mL
minimum concentration of killing [4]: 256 µg/mL
minimum concentration of killing [5]: 256 µg/mL
minimum concentration of killing [6]: 16 µg/mL
minimum concentration eradicating biofilm below detection limit [7]: 256 µg/mL
minimum concentration of killing [8]: 256 µg/mL

Pseudomonas aeruginosa clinical isolate PSAE1645
minimum concentration eradicating biofilm below detection limit [1]: 64 µg/mL
minimum concentration of killing [2]: 4 µg/mL
minimum concentration of killing [3]: 64 µg/mL
minimum concentration of killing [4]: 256 µg/mL
minimum concentration of killing [5]: 256 µg/mL
minimum concentration of killing [6]: ≤ 1 µg/mL
minimum concentration eradicating biofilm below detection limit [7]: 256 µg/mL
minimum concentration of killing [8]: 256 µg/mL

Pseudomonas aeruginosa clinical isolate PSAE1647
minimum concentration eradicating biofilm below detection limit [1]: 256 µg/mL
minimum concentration of killing [2]: 4 µg/mL
minimum concentration of killing [3]: 64 µg/mL
minimum concentration of killing [4]: 64 µg/mL
minimum concentration of killing [5]: 64 µg/mL
minimum concentration of killing [6]: 4 µg/mL
minimum concentration eradicating biofilm below detection limit [7]: 256 µg/mL
minimum concentration of killing [8]: 256 µg/mL

Pseudomonas aeruginosa clinical isolate PSAE1649
minimum concentration eradicating biofilm below detection limit [1]: 64 µg/mL
minimum concentration of killing [2]: ≤ 1 µg/mL
minimum concentration of killing [3]: 16 µg/mL
minimum concentration of killing [4]: 64 µg/mL
minimum concentration of killing [5]: 64 µg/mL
minimum concentration of killing [6]: ≤ 1 µg/mL
minimum concentration eradicating biofilm below detection limit [7]: 256 µg/mL
minimum concentration of killing [8]: 256 µg/mL

Pseudomonas aeruginosa clinical isolate PSAE1651
minimum concentration eradicating biofilm below detection limit [1]: 1020 µg/mL
minimum concentration of killing [2]: ≤ 1 µg/mL
minimum concentration of killing [3]: 256 µg/mL
minimum concentration of killing [4]: 256 µg/mL
minimum concentration of killing [5]: 64 µg/mL
minimum concentration of killing [6]: ≤ 1 µg/mL
minimum concentration eradicating biofilm below detection limit [7]: 1020 µg/mL
minimum concentration of killing [8]: 1020 µg/mL

Pseudomonas aeruginosa clinical isolate PSAE1654
minimum concentration eradicating biofilm below detection limit [1]: 256 µg/mL
minimum concentration of killing [2]: 64 µg/mL
minimum concentration of killing [3]: 64 µg/mL
minimum concentration of killing [4]: 256 µg/mL
minimum concentration of killing [5]: 64 µg/mL
minimum concentration of killing [6]: 4 µg/mL
minimum concentration eradicating biofilm below detection limit [7]: 256 µg/mL
minimum concentration of killing [8]: 256 µg/mL

Pseudomonas aeruginosa clinical isolate PSAE1745
minimum concentration eradicating biofilm below detection limit [1]: > 1020 µg/mL
minimum concentration of killing [2]: 1020 µg/mL
minimum concentration of killing [3]: 1020 µg/mL
minimum concentration of killing [4]: 256 µg/mL
minimum concentration of killing [5]: 64 µg/mL
minimum concentration of killing [6]: 1020 µg/mL
minimum concentration eradicating biofilm below detection limit [7]: 256 µg/mL
minimum concentration of killing [8]: 256 µg/mL

Pseudomonas aeruginosa clinical isolate PSAE1837
minimum concentration eradicating biofilm below detection limit [1]: 1020 µg/mL
minimum concentration of killing [2]: 64 µg/mL
minimum concentration of killing [3]: 1020 µg/mL
minimum concentration of killing [4]: 64 µg/mL
minimum concentration of killing [5]: 64 µg/mL
minimum concentration of killing [6]: 4 µg/mL
minimum concentration eradicating biofilm below detection limit [7]: 64 µg/mL
minimum concentration of killing [8]: 64 µg/mL

Pseudomonas aeruginosa clinical isolate PSAE1872
minimum concentration eradicating biofilm below detection limit [1]: 1020 µg/mL
minimum concentration of killing [2]: 4 µg/mL
minimum concentration of killing [3]: 64 µg/mL
minimum concentration of killing [4]: 64 µg/mL
minimum concentration of killing [5]: 16 µg/mL
minimum concentration of killing [6]: 4 µg/mL
minimum concentration eradicating biofilm below detection limit [7]: 256 µg/mL
minimum concentration of killing [8]: 256 µg/mL

Pseudomonas aeruginosa clinical isolate PSAE1903
minimum concentration eradicating biofilm below detection limit [1]: 256 µg/mL
minimum concentration of killing [2]: 256 µg/mL
minimum concentration of killing [3]: 256 µg/mL
minimum concentration of killing [4]: 256 µg/mL
minimum concentration of killing [5]: 64 µg/mL
minimum concentration of killing [6]: 16 µg/mL
minimum concentration eradicating biofilm below detection limit [7]: 256 µg/mL
minimum concentration of killing [8]: 256 µg/mL
